Measurements as given in PubChem BioAssay AID493014 (National Center for Advancing Translational Sciences (NCATS), 2011).
The campaign covered roughly 340,000 compounds. About 170 (0.05%) were called active. Inconclusive results, whose numbers are uncertain, are shown with a selection of clear calls. Calls come from the whole dose curve; as a rule, active = well fitted inhibition curve with a large enough effect in the signal ratio, with a control signal flat (not every such curve was filed as active); inconclusive = small, poorly fitted or top-dose-only effect, or effect the other way, or a change in a side signal; inactive = flat fitted curve, though single readings scatter; the % refers to the signal ratio. A potency beside an inconclusive call is a rough fit, not a confirmed value.

test: qHTS Assay to Find Inhibitors of Chronic Active B-Cell Receptor Signaling; conditions: ABC-DLBCL IkBa-CBG/CBR reporter, luminescence ratio (green luciferase fused to IkBa over red control in TMD8 lymphoma cells), 4 h; activity change, negative = inhibition: at 46.1 µM (top of the series) unless noted;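 for activity change, negative = inhibition: plate controls were basal doxycycline-induced cells for no effect and cells given 10 µM MG132 for full effect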
In short: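 Concentration-response series (up to 46 uM) were applied to TMD8 dual-reporter cells for 4 h at 37C with doxycycline. Green/red ratio, after filter-overlap correction, defined %Activity; red signal alone was normalised to basal cells and zero luminescence.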
Potency is the fitted concentration of half-maximal effect.

SMILES	Potency	activity change, negative = inhibition
Cc1cccc(NC(=S)NCc2ccc3c(c2)cc(C)n3C)c1C	inconclusive: 5.62 µM [falling, single point]	
Cc1nnc(SCC(=O)NCc2ccccc2)[nH]c1=O	inconclusive: 7.31 µM [falling, single point]	
COc1cccc(NC(=O)CNC(=O)c2cccs2)c1	inconclusive: 29.1 µM [falling, single point]	
Cc1cccc(-c2cc(N)n(-c3ccccc3)n2)c1	inconclusive: 22.4 µM [falling, partial curve]	
COc1ccc(F)cc1S(=O)(=O)N1CCCC(C)C1 (centres undefined)		inconclusive: -29.9%
COCCOC(=O)C1=C(N)OC2=C(C(=O)CC(C)(C)C2)C1c1cccnc1 (centres undefined)		inconclusive: 3.99%
CCOC(=O)C1=C(C)NC(=S)N(C(C)=O)C1c1ccccc1 (centres undefined)		inconclusive: 3.85%
CC(=O)c1cccc(NC(=O)c2csc3c2CCCCC3)c1		inconclusive: -6.8%
CCOC(=O)Cc1c(C)nc2c(C#N)c(C)nn2c1C		inconclusive: 0.122%
CC(C)CSc1nsc(N)n1		inactive: 0.512%
Cc1cccc(C(=O)Nc2ccc3c(c2)nc(C)n3C)c1		inconclusive: -23%
COc1ccc(-c2sc3cc(OC)ccc3c2-c2ccc(OCCN3CCOCC3)cc2)cc1	inconclusive: 16.4 µM [falling, partial curve, poor fit]	
CC(CC(=O)Nc1ccccc1C(F)(F)F)c1ccccc1 (centres undefined)		inconclusive: 5.51%
COc1cccc(/C=N/Nc2nnc(C)n2N)c1OCc1ccccc1Cl	inconclusive: 20.6 µM [rising, single point]	
Cc1cc(C)c(S(=O)(=O)Nc2cccc(S(=O)(=O)NC3=NCCC3)c2)c(C)c1		inactive: 0.225%
CCCCN(Cc1ccco1)C(=O)C1CCCN(c2ncnc3c2nc2n3CCCCC2)C1 (centres undefined)		inconclusive: -0.802%
CCc1c(C(=O)NNC(=S)Nc2ccc(S(=O)(=O)Nc3ncccn3)cc2)csc1C	inconclusive: 15.8 µM [falling, partial curve]	
COc1ccc(C2=NS(=O)(=O)N(C)C(C(=O)NC(C)c3ccccc3)=C2)cc1OC (centres undefined)		inactive: 0.571%
O=C1CCCC2=C1C1(CCCCC1)N=C(Nc1nc3ccccc3o1)N2		inactive: -3.87%
CCc1cc[n+](C2=C([O-])c3ccccc3C(=O)/C2=N\S(=O)(=O)c2cccs2)cc1		inconclusive: 3.93%
COc1ccc(CNC(=S)N/N=C(\C)c2ccc(OC)cc2)cc1	inconclusive: 25.1 µM [falling, partial curve, poor fit]	
CCc1ccc(S(=O)(=O)Nc2cccc(-c3ccc4nncn4n3)c2)s1		inactive: -8.3%
CCOc1cccc(=O)c2c(C)n(CC(=O)c3ccccc3)c(C)c12		inactive: 24.4%
O=c1[nH]n(-c2cccc(Cl)c2)c2ncccc12	inconclusive: 15.8 µM [rising, partial curve, poor fit]	
COc1cc2c(cc1OC)C(c1cccc(C)c1)CC(=O)N2 (centres undefined)	inconclusive: 22.4 µM [falling, single point]	

2 entries drawn at random from those above:
SMILES	Potency	activity change, negative = inhibition
CC(CC(=O)Nc1ccccc1C(F)(F)F)c1ccccc1 (centres undefined)		inconclusive: 5.51%
CC(=O)c1cccc(NC(=O)c2csc3c2CCCCC3)c1		inconclusive: -6.8%

Further compounds follow:

SMILES	Potency	activity change, negative = inhibition
Cc1ccccc1Nc1nc2ccccc2s1	inconclusive: 2.59 µM [falling, partial curve, poor fit]	
Nc1nccnc1C(=O)OCC(=O)Nc1cccc(S(=O)(=O)N2CCCCC2)c1	inconclusive: 14.6 µM [falling, partial curve]	
COc1ccccc1NC(=O)C(=O)N/N=C(\C)CC(=O)Nc1ccccc1C(F)(F)F		inconclusive: 475%
COc1cc(NC(=O)C2CC(c3cccc(OC)c3OC)=NO2)cc(OC)c1OC (centres undefined)		inactive: -20.7%
COc1ccc(C2=NS(=O)(=O)N(C)C(C(=O)Nc3ccc4c(c3)OCO4)=C2)cc1OC		inconclusive: 1.89%
O=C(NC(=S)NNC(=O)c1ccccc1O)c1ccccc1	inconclusive: 20 µM [falling, partial curve]	
O=C1N(c2ccccc2)CCN1c1ccccc1		inconclusive: 2.25%
O=C(/C=C/c1ccccc1)NCCSCc1ccc(Cl)cc1		inconclusive: 9.83%
Cc1cc(CNC(=O)c2ccc3c(c2)OCO3)c2ccccc2n1	inconclusive: 28.2 µM [falling, single point]	
CC(Sc1nnc(-c2cccs2)n1Cc1ccccc1)C(=O)NCc1ccc2c(c1)OCO2 (centres undefined)		inconclusive: 3.41%
O=C(c1ccco1)N1CCN(CC2CC3C=CC2C3)CC1 (centres undefined)		inconclusive: 10.7%
COc1cc2nc(N3CCN(C(=O)C4COc5ccccc5O4)CC3)nc(N)c2cc1OC (centres undefined)	inconclusive: 12.6 µM [rising, single point]	
CC(C)(C)OC(=O)NCc1ccc(NC(=O)c2nc[nH]c2C(=O)NCCN(CCNC(=O)c2[nH]cnc2C(=O)Nc2ccc(CNC(=O)OC(C)(C)C)cc2)CCNC(=O)c2[nH]cnc2C(=O)Nc2ccc(CNC(=O)OC(C)(C)C)cc2)cc1		inactive: -0.238%
C/C(Cl)=C\Cn1c(O)c(N=O)c2ccccc21		inconclusive: -6.06%
COc1cc(C=O)ccc1OCCOCCOc1ccc(Cl)cc1		inactive: 8.18%
CN(C)CCOC(=O)c1ccc2[nH]c3c(c2c1)CSCC3	inconclusive: 20 µM [falling, partial curve, poor fit]	
N#Cc1nc(COc2ccccc2F)oc1NCc1ccc(F)cc1		inconclusive: -13.6%
CN(C)CCCN(C(=O)c1sc2ccccc2c1Cl)c1nc2c(F)cccc2s1		inconclusive: -4.98%
N#CC(C#N)=Cc1cc2ccccc2nc1N1CCCCC1	inconclusive: 18.4 µM [falling, partial curve, poor fit]	
Cc1ccccc1CCN1CCCC(CN(C)CC(C)(C)C)C1 (centres undefined)		inconclusive: 5.48%
COc1ccc(C(=O)Oc2ccc(F)cc2C(=O)/C=C/c2ccc(OC)c(OC)c2)cc1		inconclusive: -9.28%
CC(=O)Nc1cccc(-c2nnc(-c3ccccc3)o2)c1	inconclusive: 20.6 µM [falling, partial curve]	
Cc1cc(C)nc(Nc2n[nH]c(-c3ccc(N)cc3)n2)n1	inconclusive: 16.4 µM [falling, partial curve]	
CCn1c(SCC(=O)N2CCOCC2)nnc1C(C)NC(=O)c1ccccc1 (centres undefined)		inconclusive: -1.46%
